Measurements as given in PMC7690829.
Results are given in words; binding and its absence hold for the method and conditions named. Binding seen in cells or lysates may run through a third protein. Some entries that bind do so weakly or less than the wild type. Where a sequence is shown, tags or fusion partners need not be part of it.

The chains behind the UniProt entries cited, without tags or fusion partners.
UniProt Q9GZV5: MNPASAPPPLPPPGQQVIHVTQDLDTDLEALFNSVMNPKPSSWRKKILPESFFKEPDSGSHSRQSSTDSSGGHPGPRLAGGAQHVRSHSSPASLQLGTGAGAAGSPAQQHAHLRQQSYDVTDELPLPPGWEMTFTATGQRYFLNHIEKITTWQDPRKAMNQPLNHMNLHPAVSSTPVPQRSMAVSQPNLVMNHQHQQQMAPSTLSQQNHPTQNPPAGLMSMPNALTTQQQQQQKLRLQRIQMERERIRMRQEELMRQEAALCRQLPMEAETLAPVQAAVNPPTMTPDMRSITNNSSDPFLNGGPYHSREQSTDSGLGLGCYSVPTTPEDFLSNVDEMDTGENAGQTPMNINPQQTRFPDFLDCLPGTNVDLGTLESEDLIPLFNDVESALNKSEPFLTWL

Legend:
[1] = biological target: T1, HA-USP1 (ubiquitin specific peptidase 1) (UniProt O94782); test: co-IP; Flag-TAZ and HA-USP1 co-transfected in HEK293T; 500 ug lysate in IP buffer (25 mM Tris-HCl, 150 mM NaCl, 1% NP-40, 5% glycerol, pH 7.4) incubated with Flag or HA beads overnight at 4 °C; immunoblot
T1 sequence: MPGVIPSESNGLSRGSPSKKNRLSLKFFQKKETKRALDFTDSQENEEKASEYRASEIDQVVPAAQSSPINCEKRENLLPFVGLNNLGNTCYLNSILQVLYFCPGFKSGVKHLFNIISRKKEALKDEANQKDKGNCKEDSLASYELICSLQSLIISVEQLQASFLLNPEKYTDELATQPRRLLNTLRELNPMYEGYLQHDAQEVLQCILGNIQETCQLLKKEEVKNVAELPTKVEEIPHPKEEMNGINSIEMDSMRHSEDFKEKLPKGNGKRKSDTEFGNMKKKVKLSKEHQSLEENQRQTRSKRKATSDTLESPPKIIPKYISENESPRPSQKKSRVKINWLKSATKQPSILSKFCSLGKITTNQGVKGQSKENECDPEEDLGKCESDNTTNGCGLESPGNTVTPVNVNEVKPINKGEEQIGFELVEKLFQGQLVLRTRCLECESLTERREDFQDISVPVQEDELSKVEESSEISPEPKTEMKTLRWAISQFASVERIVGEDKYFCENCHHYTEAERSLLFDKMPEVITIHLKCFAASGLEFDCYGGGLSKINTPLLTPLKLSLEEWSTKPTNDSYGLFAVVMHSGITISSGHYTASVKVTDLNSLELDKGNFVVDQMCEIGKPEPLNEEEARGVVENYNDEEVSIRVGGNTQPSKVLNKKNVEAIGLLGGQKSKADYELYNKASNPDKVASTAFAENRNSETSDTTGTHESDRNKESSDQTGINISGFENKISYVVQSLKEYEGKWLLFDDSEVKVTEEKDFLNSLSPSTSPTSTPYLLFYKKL

[2] = biological target: T1, HA-USP1 (ubiquitin specific peptidase 1); test: co-IP; exogenous TAZ or exogenous USP1 precipitated, endogenous USP1 or TAZ detected by immunoblot; IP buffer (25 mM Tris-HCl, 150 mM NaCl, 1% NP-40, 5% glycerol, pH 7.4), beads overnight at 4 °C

binding [1] | binding [2] | Substance
binds | – | Flag-TAZ (Transcriptional co-activator with PDZ-binding motif) (from UniProt Q9GZV5 1-400)
– | binds | endogenous TAZ (from UniProt Q9GZV5 1-400)
